Measured values: PubChem BioAssay AID1259420 (Broad Institute, 2018)
In all, about 1,000 compounds went through this assay and about 250 (25%) were called active. Inconclusive results (about 31%) are left out. How the calls were made is not given here. The list shows a part of the results, in another mix than the full data. Entries with a potency or affinity are not part of this list.

Test: compound activity on host-cell Toxoplasma growth – dose response (AID 1259420);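 further: host cells were HeLa; final incubation lasted 72 hours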
Details: Toxoplasma gondii growth in host cells, no IFN-gamma

COCCN1CC[C@@H]2C[C@H](C(=O)Nc3cccnc3)O[C@@H]2C1
max activity (at 19.5 µM unless noted): inactive: 6.74% [at 0.16 µM]

CC[C@H]1CN2CCC1C[C@@H]2[C@@H](O)c1ccnc2ccc(OC)cc12 (stereo partly specified)
max activity (at 19.5 µM unless noted): inactive: 6.76% [at 2.6 µM]

c1cncc(CN2C[C@@H]3COC[C@@]3(Cc3nnc(C4CC4)o3)C2)c1
max activity (at 19.5 µM unless noted): inactive: -15% [at 10 µM]

C=CCOC1C2CCC1N(Cc1cccc(C)n1)CCO2 (stereo unspecified)
max activity (at 19.5 µM unless noted): inactive: 11.2%

CCCN(CCC)C1CCc2ccc(O)cc2C1 (stereo unspecified)
max activity (at 19.5 µM unless noted): inactive: 9.56% [at 0.16 µM]

Cn1cccc1CN1CC2(CCN(c3ncccn3)C2)C1
max activity (at 19.5 µM unless noted): inactive: 12% [at 1.2 µM]

C/C=C/c1ccc(C2[C@@H]3CN(C(=O)C4CCC4)C[C@H]2N3)cc1 (stereo partly specified)
max activity (at 0.075 µM): inactive: -25%
max activity (at 0.15 µM): inactive: -11.6%

Cn1cc(C(=O)C(=O)N[C@H]2CN3CCC2CC3)c2ccccc21
max activity (at 19.5 µM unless noted): inactive: 12.4% [at 0.038 µM]

Cc1cccc(CN2CC[C@H]3[C@@H]2CCN3C(=O)NC2CCCC2)n1
max activity (at 19.5 µM unless noted): inactive: 12.8% [at 0.16 µM]

O=C(c1ccnnc1)N1C[C@H]2CN(Cc3cccc(F)c3)C[C@H]2C1
max activity (at 19.5 µM unless noted): inactive: 10.3%

c1cnc(N2CCO[C@H]3CN(Cc4cccs4)C[C@@H]32)nc1
max activity (at 19.5 µM unless noted): inactive: 12.2% [at 2.6 µM]

CCOc1ccccc1-n1c(C(C)N2CCN(C(=O)COc3ccc(Cl)cc3)CC2)nc2ccccc2c1=O (stereo unspecified)
max activity (at 19.5 µM unless noted): inactive: -4.16% [at 0.08 µM]

CCO[C@H]1CC[C@@H]2[C@H]1OCCN2Cc1cc(C)on1
max activity (at 19.5 µM unless noted): inactive: -17.1% [at 2.6 µM]

COc1ncccc1CN1CC[C@@H]2C[C@H](c3n[nH]c(C)n3)O[C@H]2C1
max activity (at 19.5 µM unless noted): inactive: -11.3% [at 0.16 µM]

Cn1cc(C(=O)N2CC3(CCN(Cc4cccnc4)C3)C2)cn1
max activity (at 19.5 µM unless noted): inactive: -19.2% [at 0.3 µM]

CC[N+]1(C)CCCC(OC(=O)C(O)(c2ccccc2)c2ccccc2)C1 (stereo unspecified)
max activity (at 19.5 µM unless noted): inactive: 9.65%

C[C@]12CC[C@@H](O)C[C@@H]1CC[C@@H]1[C@@H]2CC[C@]2(C)[C@@H](C(=O)CO)CC[C@@H]12
max activity (at 19.5 µM unless noted): inactive: -10.4%

COc1ccc2c(c1)C1(CCN(C(=O)c3ccc(N(C)C)c4ccccc34)CC1)CC2CC(=O)O (stereo unspecified)
max activity (at 19.5 µM unless noted): inactive: -19.7% [at 10 µM]

Cc1ncsc1CCCl
max activity (at 19.5 µM unless noted): inactive: 10.2%

O=C(c1cccnc1)N1CCC2(CN(Cc3ccsc3)C2)C1
max activity (at 19.5 µM unless noted): inactive: -10.6% [at 10 µM]
